Measured values published in PubChem BioAssay AID2563 (Broad Institute, 2010).
In all, about 290,000 compounds went through this assay and about 800 (0.28%) were called active. Inconclusive results, whose numbers are uncertain, are shown with a selection of clear calls.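 How the source made its calls: active means fall in fluorescence gain of 50% or more versus controls, with final raw signal at or below 3038400; inconclusive means same 50% fall but final raw signal above 3038400; inactive means fall in fluorescence gain under 50%.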

Sequences of proteins named here, by UniProt entry; tags and fusion partners are left off. A change or cut given only in a name is not applied to a line headed by its entry.
UniProt Q03530: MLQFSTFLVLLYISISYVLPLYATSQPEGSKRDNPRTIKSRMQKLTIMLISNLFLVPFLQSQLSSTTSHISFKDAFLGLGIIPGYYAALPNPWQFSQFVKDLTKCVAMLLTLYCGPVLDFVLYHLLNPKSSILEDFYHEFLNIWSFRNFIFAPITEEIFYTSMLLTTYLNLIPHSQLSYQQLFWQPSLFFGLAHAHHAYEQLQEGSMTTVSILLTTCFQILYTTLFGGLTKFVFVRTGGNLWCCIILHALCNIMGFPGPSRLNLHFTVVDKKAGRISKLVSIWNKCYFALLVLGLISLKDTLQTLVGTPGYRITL

These compounds were tested against CAAX prenyl protease 2 (Saccharomyces cerevisiae (strain ATCC 204508 / S288c)) (UniProt Q03530) (assay: blockers of Rce1 CaaX peptide cleavage – biochemical, fluorescence, cell-free homogeneous, primary screen (AID 2563)). Details: yeast membranes, quenched prenylated peptide cleavage fluorescence.
With CN(C)CCCNc1oc(-c2cccc(Cl)c2)nc1C#N the outcome was “inconclusive”.
CCOP(=O)(OCC)c1nc(-c2ccc(OC)cc2)oc1N1CCOCC1 was tested, and the outcome was “inconclusive”.
CCOc1cccc(/C=N/NC(=S)Nc2ccccc2[N+](=O)[O-])c1O was tested, and the outcome was “inactive”.
For Cc1cc(C)n2nc(-c3ccco3)nc2n1, the outcome was “inconclusive”.
In the case of COc1cc(NC(=O)Nc2ccc(Cl)c(Cl)c2)c(C(=O)O)cc1OC, the outcome was “inconclusive”.
For Cc1nn(CC(=O)c2ccccc2)c(=O)c2nn(-c3ccccc3F)c(C)c12, the outcome was “inconclusive”.
With COc1ccc(-c2oc3ccccc3c2C(=O)Oc2ccccc2)cc1 the outcome was “inconclusive”.
Cc1ccc(C)n1Cc1ccccc1Cl was tested, and the outcome was “inactive”.
c1ccc2c(c1)NC1(CCCCC1)n1c-2nc2ccccc21 was tested, and the outcome was “inconclusive”.
For CCCCC1(C)Nc2ccccc2-c2nc3ccccc3n21 (configuration not stated), the outcome was “inconclusive”.
For Nc1cc(OC(=O)c2cccs2)nn1S(=O)(=O)c1ccccc1, the outcome was “inactive”.
Cc1cc(C(=O)O)ccc1-c1ccc(CO)o1 was tested, and the outcome was “inconclusive”.
In the case of CCCCn1c(-c2sccc2C)n[nH]c1=S, the outcome was “active”.
With CCOC(=O)c1c(NC(=O)C2C3C=CC(CC3)C2C(=O)O)sc(C)c1C (configuration not stated) the outcome was “inactive”.
N#Cc1nc(-c2cccc3ccccc23)oc1NCCN1CCOCC1 was tested, and the outcome was “inconclusive”.
In the case of C=C(C)C(=O)Oc1ccc(N2C(=O)[C@@H]3C4C=CC(C4)[C@@H]3C2=O)cc1, the outcome was “inactive”.
CC1(C)Cc2ccccc2-c2nc(NCCCO)[nH]c(=O)c21 was tested, and the outcome was “inconclusive”.
For CCOC(=O)c1sc(NNC(=O)c2ccc(C)cc2)nc1C, the outcome was “inactive”.
With COc1ccccc1-c1nc(C#N)c(NCc2ccc(F)cc2)o1 the outcome was “inconclusive”.
For CC(NC(=O)c1ccccc1F)c1cccc2ccccc12 (configuration not stated), the outcome was “inconclusive”.
For COC(=O)Cc1cc(=O)oc2c(C)c(O)ccc12, the outcome was “inconclusive”.
With CC1(C)Oc2ccc3ccc(=O)oc3c2CC1O (configuration not stated) the outcome was “inconclusive”.
With CCN(CC)CCCNc1oc(-c2ccc(OC)c(OC)c2)nc1C#N the outcome was “inconclusive”.
With Cc1cc(C(=O)Nc2ccc(S(=O)(=O)Nc3onc(C)c3C)cc2)c(C)o1 the outcome was “inactive”.
For CN1CCc2c(sc(NC(=O)CS(=O)(=O)c3ccccc3)c2C(N)=O)C1, the outcome was “inactive”.
In the case of COc1ccccc1C1CC(c2ccco2)=NN1c1ccccc1 (configuration not stated), the outcome was “inconclusive”.
For Cc1c(C)c2cc(Cl)c(O)c(CN3CCCC(C)C3)c2oc1=O (configuration not stated), the outcome was “inconclusive”.
For COc1cc(/C=N/NC(=O)Cn2cnc3c2c(=O)n(C)c(=O)n3C)ccc1O, the outcome was “inactive”.
In the case of N/C(Cc1ccc([N+](=O)[O-])cc1)=N\OC(=O)c1ccc2ccccc2c1, the outcome was “active”.
With COc1cccc(-c2csc(N3CCN(C(=O)Nc4ccc(Cl)cc4)CC3)n2)c1 the outcome was “inactive”.
For COc1ccc(-n2c(=S)[nH]c3cc(C(=O)NCc4cccnc4)ccc3c2=O)c(OC)c1, the outcome was “inactive”.
With CCCc1cc(=O)oc2c(CN3CCN(C)CC3)c(O)c(Cl)cc12 the outcome was “inconclusive”.
In the case of O=C(O)CCc1nc2cc(C(F)(F)F)ccc2n(Cc2ccccc2)c1=O, the outcome was “active”.
In the case of CCCN(CCC)CCNC(=O)c1cc2c(-c3ccccc3F)nn(C)c2s1, the outcome was “active”.
For Cc1cccn2c(=O)c3cc(C#N)c(=O)n(CCCN4CCOCC4)c3nc12, the outcome was “inconclusive”.
In the case of COCCN1C(=O)/C(=C/c2ccc(Oc3ccc([N+](=O)[O-])cn3)c(OC)c2)SC1=Nc1ccccc1, the outcome was “active”.
With O=C(O)CC/C(=N/Nc1ccc([N+](=O)[O-])cc1)C(=O)O the outcome was “inactive”.
For COCCNc1oc(-c2ccc(Cl)cc2)nc1C#N, the outcome was “inconclusive”.
CCNc1nnc(-c2ccncc2)s1 was tested, and the outcome was “inconclusive”.
With N#Cc1nc(-c2cccs2)oc1N1CCOCC1 the outcome was “inconclusive”.
For O=C(CC(SCCO)c1ccc2c(c1)OCO2)c1ccco1 (configuration not stated), the outcome was “inactive”.
With O=C(NNC(=O)c1cc2cc3ccccc3nc2s1)c1cccc(Cl)c1 the outcome was “inactive”.
With Cn1c(C(=O)N2CCOCC2)cc2c(=O)n3ccccc3nc21 the outcome was “inconclusive”.
CC(C)(O)[C@H]1Cc2cc3ccc(=O)oc3cc2O1 was tested, and the outcome was “inconclusive”.
In the case of COc1ccc2cc3cc(C(=O)NCCCN4CCOCC4)oc3nc2c1, the outcome was “inconclusive”.
For OCCCCNc1cccc2ccccc12, the outcome was “inconclusive”.
For C=CCOc1ccc(/C=C2\SC(=Nc3cccnc3)NC2=O)cc1, the outcome was “inactive”.
With CCOc1cccc(-c2c(C(=O)N/N=C/c3c(F)cccc3Cl)nnn2-c2nonc2N)c1 the outcome was “active”.
With Cc1nn2c(=S)[nH]nc2[nH]c1=O the outcome was “inactive”.
For N#Cc1ccc(-c2ccc(OCC(O)CN3CCCCC3)cc2)cc1 (configuration not stated), the outcome was “inconclusive”.
For Cc1cc(N2C(=O)C3C4C=CC(C4)C3C2=O)ccc1NC(=O)c1cccs1 (configuration not stated), the outcome was “active”.
CCOCCCn1c(=NC(C)=O)c(C(=O)OCC)cc2c(=O)n3ccccc3nc21 was tested, and the outcome was “inconclusive”.
With Cc1ccc(CNC(=O)CN(C(=O)C2(C)CC(=O)N=C3C=CC=CN32)c2ccccc2F)cc1 (configuration not stated) the outcome was “inconclusive”.
In the case of CCOC(=O)C1CCCN(S(=O)(=O)c2cc3[nH]c(=O)c(=O)[nH]c3cc2C)C1 (configuration not stated), the outcome was “active”.
For O=C(COc1ccc2c3c(c(=O)oc2c1)CCCC3)NCCCN1CCCC1=O, the outcome was “inconclusive”.
In the case of COC(=O)c1c(-c2ccc(OC)cc2)oc2ccc(-c3ccc(OC)nc3)cc12, the outcome was “inconclusive”.
Cc1cc(=O)oc2c(CN3CCCCC3)c(O)c(Cl)cc12 was tested, and the outcome was “inconclusive”.
For COc1cccc(CNc2ccc([N+](=O)[O-])cc2Cl)c1O, the outcome was “inactive”.
CCCn1c(N)c(N(CCOC)C(=O)COC(=O)c2ccccc2NCCO)c(=O)[nH]c1=O was tested, and the outcome was “inconclusive”.
For COc1ccc(C(=O)Nc2ccc(C(=O)OCC(=O)c3cccc4ccccc34)cc2)cc1, the outcome was “inconclusive”.
With Cc1ccc(NC(=O)c2sc(Cl)nc2-c2ccccc2)cc1C the outcome was “inactive”.
With Cc1ccc(NC(=S)N2CCC(NC(=O)c3cccc(F)c3)CC2)cc1 the outcome was “inactive”.
In the case of CCOC(=O)c1ccc(-c2ccc(CO)o2)cc1, the outcome was “inconclusive”.
In the case of COc1ccc(-n2nc(C(=O)NCC(=O)NCCN(C)C)c3ccccc3c2=O)cc1, the outcome was “inactive”.
For Cc1cc(=O)oc2cc(NC(=O)CCC(=O)O)ccc12, the outcome was “inconclusive”.
For Cc1oc2c(CN3CCCC3)c(O)ccc2c(=O)c1-c1ccccc1, the outcome was “inconclusive”.
With Cc1occc1-c1n[nH]c(=S)n1C the outcome was “inactive”.
In the case of N=c1c(C(=O)NCC2CCCO2)cc2c(=O)n3ccccc3nc2n1Cc1ccccc1 (configuration not stated), the outcome was “inconclusive”.
Cc1c(CC(=O)NCC(=O)NCC(=O)O)c(=O)oc2cc3c(cc12)CCC(C)(C)O3 was tested, and the outcome was “inconclusive”.
In the case of COc1ccc(-c2cc(C(F)(F)F)nc(SCC(=O)N(C)Cc3cn(C)nc3C)n2)cc1OC, the outcome was “active”.
In the case of O=C(CN1CCCC1)Nc1ccc(-c2nc3cc(NC(=O)CN4CCCC4)ccc3o2)cc1, the outcome was “inconclusive”.
With COc1cccc(C(=O)Nc2nnc(SCC(=O)NC3CCCC3)s2)c1 the outcome was “active”.
With O=C(Nc1ccc2c(c1)C(=O)NC2=O)c1ccc(Cl)s1 the outcome was “inconclusive”.
CCN(CC)Cc1c(O)ccc2c(C)c(CC(=O)OC)c(=O)oc12 was tested, and the outcome was “inconclusive”.
Cc1ccc2c(c1)sc[n+]2Cc1ccccc1 was tested, and the outcome was “active”.
In the case of Cc1ccc(C2Nc3ccccc3-c3nc4ccccc4n32)o1 (configuration not stated), the outcome was “inconclusive”.
In the case of COc1ccc(CCc2nc(-c3ccc(-n4cccc4)cc3)no2)cc1, the outcome was “inactive”.
For CN(C)CCCNc1cc(C(C)(C)C)nc2c(-c3ccc(Cl)cc3)cnn12, the outcome was “inactive”.
In the case of Cc1c(CC(=O)N[C@@H](C)C(=O)O)c(=O)oc2cc3c(cc12)CCC(C)(C)O3, the outcome was “inconclusive”.
In the case of C=CCn1c(-c2cccc(Cl)c2)n[nH]c1=S, the outcome was “inactive”.
With CCOc1ccc(C(=O)Nc2ccc3[nH]ncc3c2)cc1 the outcome was “inactive”.
CCCCCCCCCCOC(=O)Cn1c(COc2ccc(Cl)cc2)[n+](C)c2ccccc21 was tested, and the outcome was “inactive”.
With O=S(=O)(c1ccccc1)c1cnc(-c2cccnc2)nc1-c1ccccc1 the outcome was “inconclusive”.
COc1cc2nc(N(C)C)nc(N)c2cc1OC was tested, and the outcome was “inconclusive”.
For Cc1[nH]n(C(N)=S)c(=O)c1N=Nc1cccc([N+](=O)[O-])c1C, the outcome was “inactive”.
CC1(C)Oc2ccc3ccc(=O)oc3c2C[C@H]1O was tested, and the outcome was “inconclusive”.
With COc1ccc(-c2csc(Nc3ccc(S(=O)(=O)Nc4cc(OC)nc(OC)n4)cc3)n2)cc1 the outcome was “inactive”.
